# Data reported in the supplement of paper PMC10849652.
# Chains of the proteins cited; added tags and fusions are not shown. Lines headed by an entry give the natural chain unless they say otherwise; changes in a name come on top.
# UniProt P22557: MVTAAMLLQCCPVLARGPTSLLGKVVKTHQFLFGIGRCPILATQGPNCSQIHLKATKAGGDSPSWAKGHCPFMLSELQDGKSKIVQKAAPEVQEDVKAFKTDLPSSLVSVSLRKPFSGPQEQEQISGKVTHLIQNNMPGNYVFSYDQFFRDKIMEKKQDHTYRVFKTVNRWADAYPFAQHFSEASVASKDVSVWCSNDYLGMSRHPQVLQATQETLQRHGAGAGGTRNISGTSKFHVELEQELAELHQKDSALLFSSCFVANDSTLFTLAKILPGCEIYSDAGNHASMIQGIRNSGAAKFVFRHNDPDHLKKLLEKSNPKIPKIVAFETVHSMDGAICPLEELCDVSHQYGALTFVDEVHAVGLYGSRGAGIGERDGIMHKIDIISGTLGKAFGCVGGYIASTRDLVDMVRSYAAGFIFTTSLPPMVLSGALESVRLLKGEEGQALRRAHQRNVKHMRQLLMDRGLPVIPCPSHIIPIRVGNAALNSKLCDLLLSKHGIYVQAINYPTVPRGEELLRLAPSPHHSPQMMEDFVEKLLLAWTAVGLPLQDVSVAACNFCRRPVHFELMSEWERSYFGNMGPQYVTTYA
# UniProt O75342: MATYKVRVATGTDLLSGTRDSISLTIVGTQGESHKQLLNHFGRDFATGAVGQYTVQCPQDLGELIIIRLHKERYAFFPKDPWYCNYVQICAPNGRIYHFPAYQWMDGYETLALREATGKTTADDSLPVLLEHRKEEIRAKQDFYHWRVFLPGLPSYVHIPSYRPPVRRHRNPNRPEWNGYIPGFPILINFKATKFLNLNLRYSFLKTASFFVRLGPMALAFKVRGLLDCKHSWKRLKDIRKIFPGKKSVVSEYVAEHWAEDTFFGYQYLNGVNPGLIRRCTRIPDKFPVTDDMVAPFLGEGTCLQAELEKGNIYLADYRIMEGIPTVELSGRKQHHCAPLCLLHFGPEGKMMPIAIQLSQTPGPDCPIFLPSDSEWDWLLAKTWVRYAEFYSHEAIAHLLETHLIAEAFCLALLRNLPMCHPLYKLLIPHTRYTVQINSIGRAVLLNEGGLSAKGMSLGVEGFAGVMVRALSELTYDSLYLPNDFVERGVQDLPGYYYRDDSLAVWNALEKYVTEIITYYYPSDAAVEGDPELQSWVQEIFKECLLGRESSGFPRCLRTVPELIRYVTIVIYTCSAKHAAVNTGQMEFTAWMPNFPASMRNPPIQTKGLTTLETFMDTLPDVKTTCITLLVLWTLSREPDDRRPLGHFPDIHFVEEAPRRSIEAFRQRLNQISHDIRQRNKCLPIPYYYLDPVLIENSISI
# UniProt P59780: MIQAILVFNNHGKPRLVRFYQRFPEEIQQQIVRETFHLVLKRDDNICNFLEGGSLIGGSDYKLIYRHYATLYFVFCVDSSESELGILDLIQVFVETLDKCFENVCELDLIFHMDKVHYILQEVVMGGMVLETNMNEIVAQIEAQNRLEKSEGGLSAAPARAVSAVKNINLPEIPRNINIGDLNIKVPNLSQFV
# UniProt Q9BV10: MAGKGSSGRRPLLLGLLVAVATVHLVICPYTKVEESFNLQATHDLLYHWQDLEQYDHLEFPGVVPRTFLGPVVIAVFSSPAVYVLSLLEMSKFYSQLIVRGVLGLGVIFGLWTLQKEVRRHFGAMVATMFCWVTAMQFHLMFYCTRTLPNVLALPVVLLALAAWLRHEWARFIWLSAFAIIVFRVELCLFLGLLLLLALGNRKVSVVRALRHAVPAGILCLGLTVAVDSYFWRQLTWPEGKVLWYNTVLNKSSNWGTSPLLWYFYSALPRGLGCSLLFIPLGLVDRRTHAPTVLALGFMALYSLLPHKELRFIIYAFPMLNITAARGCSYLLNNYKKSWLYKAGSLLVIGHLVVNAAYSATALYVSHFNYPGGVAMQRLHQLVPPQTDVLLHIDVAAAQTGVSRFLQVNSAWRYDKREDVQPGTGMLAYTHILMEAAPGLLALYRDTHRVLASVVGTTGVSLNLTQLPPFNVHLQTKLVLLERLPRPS
# UniProt P49189: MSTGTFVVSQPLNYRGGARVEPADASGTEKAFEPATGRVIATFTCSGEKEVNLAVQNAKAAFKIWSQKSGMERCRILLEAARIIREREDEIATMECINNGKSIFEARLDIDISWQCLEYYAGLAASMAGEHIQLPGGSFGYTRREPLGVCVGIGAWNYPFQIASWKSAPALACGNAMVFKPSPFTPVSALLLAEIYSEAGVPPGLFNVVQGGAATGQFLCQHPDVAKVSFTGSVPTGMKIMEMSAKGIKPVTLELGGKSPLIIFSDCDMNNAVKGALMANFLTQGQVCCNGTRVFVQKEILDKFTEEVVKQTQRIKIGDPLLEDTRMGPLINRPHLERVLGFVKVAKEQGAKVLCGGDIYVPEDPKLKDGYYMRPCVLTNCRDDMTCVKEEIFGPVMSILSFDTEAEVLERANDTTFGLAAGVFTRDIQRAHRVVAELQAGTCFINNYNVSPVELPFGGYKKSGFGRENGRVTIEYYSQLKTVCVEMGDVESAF
# UniProt Q4VCS5: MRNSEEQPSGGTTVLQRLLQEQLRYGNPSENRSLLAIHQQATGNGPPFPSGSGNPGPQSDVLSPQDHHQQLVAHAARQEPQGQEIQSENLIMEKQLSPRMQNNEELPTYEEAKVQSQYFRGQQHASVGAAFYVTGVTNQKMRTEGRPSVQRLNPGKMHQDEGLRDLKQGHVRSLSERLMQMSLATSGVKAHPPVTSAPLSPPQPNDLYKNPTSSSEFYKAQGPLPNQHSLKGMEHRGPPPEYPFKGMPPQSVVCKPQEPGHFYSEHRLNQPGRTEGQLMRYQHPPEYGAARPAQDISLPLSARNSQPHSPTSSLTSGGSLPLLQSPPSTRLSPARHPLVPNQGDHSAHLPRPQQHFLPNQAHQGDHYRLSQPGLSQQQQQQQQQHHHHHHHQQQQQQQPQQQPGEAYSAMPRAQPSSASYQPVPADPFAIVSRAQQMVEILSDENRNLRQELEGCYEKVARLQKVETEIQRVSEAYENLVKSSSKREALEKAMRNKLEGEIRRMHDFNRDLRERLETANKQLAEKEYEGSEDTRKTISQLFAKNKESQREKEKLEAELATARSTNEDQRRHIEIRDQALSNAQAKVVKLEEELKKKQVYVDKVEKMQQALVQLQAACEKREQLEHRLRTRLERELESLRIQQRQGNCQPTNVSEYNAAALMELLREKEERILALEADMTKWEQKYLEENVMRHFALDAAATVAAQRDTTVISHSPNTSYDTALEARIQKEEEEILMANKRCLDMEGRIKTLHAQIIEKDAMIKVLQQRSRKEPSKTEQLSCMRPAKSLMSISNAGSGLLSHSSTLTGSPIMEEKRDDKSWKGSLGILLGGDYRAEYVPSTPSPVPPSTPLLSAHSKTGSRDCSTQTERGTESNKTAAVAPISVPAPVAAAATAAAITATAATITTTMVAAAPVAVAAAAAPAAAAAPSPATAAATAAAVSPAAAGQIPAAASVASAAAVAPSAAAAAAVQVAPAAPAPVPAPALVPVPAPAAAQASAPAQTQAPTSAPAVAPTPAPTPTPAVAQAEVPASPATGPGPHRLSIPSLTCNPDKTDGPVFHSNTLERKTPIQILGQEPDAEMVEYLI
# UniProt Q68DC2: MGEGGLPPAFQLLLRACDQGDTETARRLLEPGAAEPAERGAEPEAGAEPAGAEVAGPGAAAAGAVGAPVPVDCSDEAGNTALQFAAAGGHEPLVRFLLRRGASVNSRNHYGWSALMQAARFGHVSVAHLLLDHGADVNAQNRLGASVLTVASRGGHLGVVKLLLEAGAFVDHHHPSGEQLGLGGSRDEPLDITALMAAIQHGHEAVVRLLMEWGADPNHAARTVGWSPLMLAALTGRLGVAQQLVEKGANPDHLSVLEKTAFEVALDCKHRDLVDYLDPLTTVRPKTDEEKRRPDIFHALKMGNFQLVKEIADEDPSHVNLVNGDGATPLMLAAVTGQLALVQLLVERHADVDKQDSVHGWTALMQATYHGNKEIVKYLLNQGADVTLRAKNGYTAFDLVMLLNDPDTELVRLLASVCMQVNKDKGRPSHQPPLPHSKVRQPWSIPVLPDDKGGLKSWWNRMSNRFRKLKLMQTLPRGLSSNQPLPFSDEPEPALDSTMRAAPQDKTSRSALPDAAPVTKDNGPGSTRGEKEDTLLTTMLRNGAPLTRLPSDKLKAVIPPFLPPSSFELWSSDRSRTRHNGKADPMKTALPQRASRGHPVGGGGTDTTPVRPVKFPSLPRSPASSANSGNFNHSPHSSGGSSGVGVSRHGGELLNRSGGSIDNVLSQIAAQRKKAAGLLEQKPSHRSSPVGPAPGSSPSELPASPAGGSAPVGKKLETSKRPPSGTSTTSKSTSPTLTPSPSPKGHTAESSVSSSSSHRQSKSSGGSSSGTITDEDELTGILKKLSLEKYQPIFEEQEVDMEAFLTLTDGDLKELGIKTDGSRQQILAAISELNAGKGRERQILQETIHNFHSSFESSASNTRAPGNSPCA
# UniProt Q9BS18, whole entry, looked up: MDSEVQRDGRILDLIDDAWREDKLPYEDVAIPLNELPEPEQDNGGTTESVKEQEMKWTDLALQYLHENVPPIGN
# UniProt Q2TAA5: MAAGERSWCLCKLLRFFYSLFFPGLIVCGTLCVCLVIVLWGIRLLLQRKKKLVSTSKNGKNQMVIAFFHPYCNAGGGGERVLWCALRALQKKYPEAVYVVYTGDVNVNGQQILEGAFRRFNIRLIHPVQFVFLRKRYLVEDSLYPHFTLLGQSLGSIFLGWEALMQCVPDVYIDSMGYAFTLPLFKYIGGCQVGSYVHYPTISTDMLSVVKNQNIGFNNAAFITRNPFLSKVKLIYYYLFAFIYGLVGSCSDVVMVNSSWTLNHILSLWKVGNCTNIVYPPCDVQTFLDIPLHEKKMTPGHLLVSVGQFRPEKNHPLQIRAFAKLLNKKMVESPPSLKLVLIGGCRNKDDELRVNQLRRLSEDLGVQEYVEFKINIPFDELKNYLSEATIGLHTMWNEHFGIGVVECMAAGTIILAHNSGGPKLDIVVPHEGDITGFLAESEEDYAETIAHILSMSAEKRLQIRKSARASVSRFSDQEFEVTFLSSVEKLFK
# UniProt Q9ULJ7: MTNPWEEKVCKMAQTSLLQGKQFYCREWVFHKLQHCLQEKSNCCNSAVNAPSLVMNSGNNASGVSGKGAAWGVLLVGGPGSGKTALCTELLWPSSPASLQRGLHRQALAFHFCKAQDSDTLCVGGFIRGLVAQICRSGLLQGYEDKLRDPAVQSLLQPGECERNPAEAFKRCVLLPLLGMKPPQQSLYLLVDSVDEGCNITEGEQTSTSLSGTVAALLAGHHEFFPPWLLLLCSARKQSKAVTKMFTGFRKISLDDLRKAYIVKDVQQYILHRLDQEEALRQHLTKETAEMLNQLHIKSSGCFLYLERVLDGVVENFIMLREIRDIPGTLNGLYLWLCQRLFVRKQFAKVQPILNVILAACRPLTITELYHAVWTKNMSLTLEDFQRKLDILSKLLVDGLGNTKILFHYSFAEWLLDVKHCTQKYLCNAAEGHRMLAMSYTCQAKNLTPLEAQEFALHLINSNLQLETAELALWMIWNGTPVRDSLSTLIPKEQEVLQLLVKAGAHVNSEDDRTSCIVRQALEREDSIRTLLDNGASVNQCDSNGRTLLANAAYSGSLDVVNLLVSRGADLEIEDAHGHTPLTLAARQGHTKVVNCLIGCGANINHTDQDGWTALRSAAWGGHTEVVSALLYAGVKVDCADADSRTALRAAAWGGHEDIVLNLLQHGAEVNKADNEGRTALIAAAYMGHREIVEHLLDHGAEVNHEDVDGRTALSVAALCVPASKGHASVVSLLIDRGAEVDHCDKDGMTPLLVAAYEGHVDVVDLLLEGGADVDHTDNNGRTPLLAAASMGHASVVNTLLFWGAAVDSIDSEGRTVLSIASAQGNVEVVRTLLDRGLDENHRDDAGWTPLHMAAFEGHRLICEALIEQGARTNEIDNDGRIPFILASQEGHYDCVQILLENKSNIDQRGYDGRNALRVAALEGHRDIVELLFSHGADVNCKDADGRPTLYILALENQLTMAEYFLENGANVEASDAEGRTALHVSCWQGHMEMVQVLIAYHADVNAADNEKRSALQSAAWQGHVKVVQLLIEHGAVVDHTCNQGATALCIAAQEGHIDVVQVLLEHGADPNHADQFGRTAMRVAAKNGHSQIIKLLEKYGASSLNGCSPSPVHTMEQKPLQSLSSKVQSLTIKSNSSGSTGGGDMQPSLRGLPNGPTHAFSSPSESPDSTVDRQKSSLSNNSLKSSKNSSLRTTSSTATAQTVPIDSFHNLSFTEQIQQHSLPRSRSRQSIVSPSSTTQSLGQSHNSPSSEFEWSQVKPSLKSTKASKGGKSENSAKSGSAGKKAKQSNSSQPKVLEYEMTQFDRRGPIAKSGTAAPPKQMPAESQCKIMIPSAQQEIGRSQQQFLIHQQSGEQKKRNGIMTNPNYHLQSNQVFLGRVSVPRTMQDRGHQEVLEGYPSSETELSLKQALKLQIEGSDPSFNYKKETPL
# This is one part of the list.
# What was measured:
# Assay in all cases: log2 fold change, soluble protein after heating vs DMSO (PISA); higher = thermal stabilisation; K562 lysate, 10 uM; active = over 0.2 and 3.5 SD of the protein, either way, in both replicates (recomputed)
# [1] = compound: O=C1NC(=O)C(c2cnc3ccccn23)=C1c1cn2c3c(cc(F)cc13)CN(C(=O)N1CCCCC1)CC2
# In short: (§1)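 K562 pellets were dounce-homogenised in PBS pH 7.4 with 1 mM MgCl2, and the crude extract at 1 mg/mL protein was treated with 10 μM compound for 30 min. Aliquots were heated for 3 min across 48°C-58°C, pooled, and brought to 0.5% NP-40 at 4°C; soluble protein was the supernatant after 21,000xg for 90 min. Soluble protein was quantified by TMTpro 16plex LC-MS/MS with channel sums equalised, and reported as log2 fold change in thermal stability against DMSO controls, with values from duplicates.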
# [2] = compound: O=C(CCCCCCC(=O)Nc1ccccc1)NO [vorinostat]
# In short: as §1
# [3] = compound: O=C(O)c1ccc2c(c1)nc(Nc1cccc(Cl)c1)c1ccncc12 [silmitasertib]
# In short: as §1
# [4] = compound: NCC(=O)Nc1ccc(-n2nc(C(F)(F)F)cc2-c2ccc3c(ccc4ccccc43)c2)cc1
# In short: as §1
# [5] = compound: c1cn2cc(-c3ccc4cn[nH]c4c3)nc(Nc3ccc(N4CCOCC4)cc3)c2n1 [entospletinib]
# In short: as §1
Target,log2 fold change [1],log2 fold change [2],log2 fold change [3],log2 fold change [4],log2 fold change [5]
ALAS2 (UniProt P22557),inactive: -0.016,–,–,–,–
ALOX12B (UniProt O75342),inactive: 0.003,inactive: 0.187,inactive: -0.052,–,–
AP3S2 (UniProt P59780),–,inactive: 0,inactive: -0.065,–,–
ANKRD44 isoform 2 (UniProt Q8N8A2),–,inactive: 0.073,inactive: 0.005,inactive: 0.127,inactive: -0.115
ALDH3A1 (UniProt P30838),inactive: 0.023,inactive: 0.145,inactive: -0.113,–,–
ALG12 (UniProt Q9BV10),–,inactive: 0.129,inactive: -0.089,inactive: 0.035,inactive: 0.051
ALDH9A1 (UniProt P49189),inactive: 0.012,–,–,inactive: 0.217,–
AMOT (UniProt Q4VCS5),inactive: 0.003,–,–,–,inactive: 0.032
ANKRD31 (UniProt Q8N7Z5),inactive: -0.022,–,–,–,inactive: 0.005
AP1B1 isoform 3 (UniProt Q10567),inactive: -0.019,–,–,–,–
ANXA6 (UniProt E5RK69),inactive: 0.037,inactive: -0.008,inactive: -0.044,–,inactive: 0.033
AMDHD2 (UniProt Q9Y303),inactive: 0.042,–,–,inactive: -0.092,–
ANAPC15 isoform 2 (UniProt P60006),inactive: -0.012,inactive: -0.285,inactive: 0.008,–,inactive: 0.116
ANKS6 isoform 4 (UniProt Q68DC2),inactive: 0.104,inactive: 0.109,inactive: -0.031,–,inactive: -0.095
ALDH1A3 (UniProt P47895),–,–,–,–,inactive: -0.441
ALKBH1 (UniProt Q13686),–,active: -0.284,inactive: 0.135,inactive: -0.089,inactive: -0.052
ANGEL1 (UniProt Q9UNK9),inactive: 0.035,–,–,–,–
ANAPC13 (UniProt Q9BS18),–,–,–,inactive: -0.027,inactive: -0.107
ALG11 (UniProt Q2TAA5),inactive: -0.101,inactive: -0.253,inactive: -0.192,–,–
ANKRD30A (UniProt Q9BXX3),inactive: -0.011,–,–,–,inactive: -0.135
ANKRD50 (UniProt Q9ULJ7),inactive: -0.022,inactive: -0.542,inactive: 0.034,–,inactive: -0.095
AKTIP isoform 2 (UniProt Q9H8T0),–,inactive: -0.255,inactive: -0.18,–,inactive: 0.065
ANKHD1 isoform 2 (UniProt Q8IWZ3),inactive: -0.039,inactive: -0.03,inactive: -0.107,–,inactive: -0.022
